Results are given in words; binding and its absence hold for the method and conditions named. In cells and extracts the contact can be indirect. Some entries that bind do so weakly or less than the wild type.
Biological target: human dopamine D5 receptor wild type (human) (UniProt P21918)
Test: co-IP; renal cortex homogenates (500 μg protein/mL) of hD5R^WT-TG and hD5R^F173L-TG mice; anti-D5R antibody (3 μg/mL) 1 hour, protein-G agarose at 4°C for 12 hours; immunoblot with anti-Gαq or anti-Gαs antibody; IgG as negative control

Protein sequences, listed by entry. Tags and fused reporters are not part of them.
UniProt P21918: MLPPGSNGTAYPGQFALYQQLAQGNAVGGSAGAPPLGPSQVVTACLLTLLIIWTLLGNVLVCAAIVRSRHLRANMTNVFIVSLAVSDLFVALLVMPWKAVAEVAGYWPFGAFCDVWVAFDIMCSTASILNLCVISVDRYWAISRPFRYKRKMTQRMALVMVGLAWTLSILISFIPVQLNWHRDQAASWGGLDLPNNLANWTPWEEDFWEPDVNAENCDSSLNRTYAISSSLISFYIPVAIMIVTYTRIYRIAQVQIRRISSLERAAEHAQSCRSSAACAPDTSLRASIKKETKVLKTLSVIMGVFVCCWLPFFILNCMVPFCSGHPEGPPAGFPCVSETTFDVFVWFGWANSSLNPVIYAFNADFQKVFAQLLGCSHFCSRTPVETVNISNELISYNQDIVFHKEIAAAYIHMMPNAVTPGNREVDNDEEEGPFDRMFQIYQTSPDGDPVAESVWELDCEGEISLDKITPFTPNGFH
UniProt P21279: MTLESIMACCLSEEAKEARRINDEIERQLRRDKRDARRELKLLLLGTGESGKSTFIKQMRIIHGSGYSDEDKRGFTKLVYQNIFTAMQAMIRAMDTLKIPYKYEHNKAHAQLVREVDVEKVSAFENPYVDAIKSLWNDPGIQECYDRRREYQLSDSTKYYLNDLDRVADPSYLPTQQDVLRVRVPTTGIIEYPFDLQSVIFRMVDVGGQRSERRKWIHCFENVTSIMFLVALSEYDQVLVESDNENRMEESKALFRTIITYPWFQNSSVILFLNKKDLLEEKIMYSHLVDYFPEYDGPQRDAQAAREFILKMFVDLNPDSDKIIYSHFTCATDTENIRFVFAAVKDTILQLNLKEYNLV
UniProt P63094: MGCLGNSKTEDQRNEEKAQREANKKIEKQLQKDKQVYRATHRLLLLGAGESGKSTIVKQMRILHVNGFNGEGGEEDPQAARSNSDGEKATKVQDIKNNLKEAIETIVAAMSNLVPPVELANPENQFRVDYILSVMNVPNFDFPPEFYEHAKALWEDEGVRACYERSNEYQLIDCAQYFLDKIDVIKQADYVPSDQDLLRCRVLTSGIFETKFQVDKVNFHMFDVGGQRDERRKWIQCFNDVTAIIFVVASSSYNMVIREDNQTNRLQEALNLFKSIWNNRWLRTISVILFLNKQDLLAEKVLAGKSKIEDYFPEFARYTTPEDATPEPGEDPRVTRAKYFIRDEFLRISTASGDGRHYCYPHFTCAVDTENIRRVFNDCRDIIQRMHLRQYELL

Sequence | binding
G protein alpha q subunit (from UniProt P21279 1-359) | binds
G protein alpha s subunit (from UniProt P63094 1-394) | binds

From PMC6507211
